Here are results for eight molecules from paper PMC5225440.

Sequences of proteins named here, by UniProt entry; tags and fusion partners are left off. A change or cut given only in a name is not applied to a line headed by its entry. A line that says so, or that is headed by a name, gives the form on record, which may keep a tag or linker.
UniProt O14974: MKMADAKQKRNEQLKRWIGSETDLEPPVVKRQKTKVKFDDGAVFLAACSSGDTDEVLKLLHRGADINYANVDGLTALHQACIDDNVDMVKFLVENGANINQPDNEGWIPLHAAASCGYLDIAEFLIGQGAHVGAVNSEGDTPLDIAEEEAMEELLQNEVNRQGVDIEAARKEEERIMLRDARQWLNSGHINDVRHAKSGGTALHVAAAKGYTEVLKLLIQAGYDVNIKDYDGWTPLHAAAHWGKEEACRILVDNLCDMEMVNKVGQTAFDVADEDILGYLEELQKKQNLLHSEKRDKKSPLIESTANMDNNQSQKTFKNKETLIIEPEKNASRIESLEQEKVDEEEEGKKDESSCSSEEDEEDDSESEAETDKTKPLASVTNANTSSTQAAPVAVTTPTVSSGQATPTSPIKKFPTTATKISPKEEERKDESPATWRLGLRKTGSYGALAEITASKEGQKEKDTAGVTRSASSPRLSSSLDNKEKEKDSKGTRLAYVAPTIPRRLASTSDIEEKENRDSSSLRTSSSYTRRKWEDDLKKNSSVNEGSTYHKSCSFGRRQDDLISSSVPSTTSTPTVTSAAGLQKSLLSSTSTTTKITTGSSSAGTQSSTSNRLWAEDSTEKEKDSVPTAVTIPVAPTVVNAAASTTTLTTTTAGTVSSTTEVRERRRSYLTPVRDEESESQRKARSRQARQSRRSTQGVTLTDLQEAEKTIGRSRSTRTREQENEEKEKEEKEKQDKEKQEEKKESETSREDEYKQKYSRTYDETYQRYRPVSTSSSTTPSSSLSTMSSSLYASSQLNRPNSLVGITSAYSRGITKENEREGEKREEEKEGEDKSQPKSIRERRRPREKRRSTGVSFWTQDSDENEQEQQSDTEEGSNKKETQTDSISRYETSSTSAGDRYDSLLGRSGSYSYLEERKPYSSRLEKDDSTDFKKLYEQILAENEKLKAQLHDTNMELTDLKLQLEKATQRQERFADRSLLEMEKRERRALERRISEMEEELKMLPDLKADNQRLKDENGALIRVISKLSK
UniProt Q99459: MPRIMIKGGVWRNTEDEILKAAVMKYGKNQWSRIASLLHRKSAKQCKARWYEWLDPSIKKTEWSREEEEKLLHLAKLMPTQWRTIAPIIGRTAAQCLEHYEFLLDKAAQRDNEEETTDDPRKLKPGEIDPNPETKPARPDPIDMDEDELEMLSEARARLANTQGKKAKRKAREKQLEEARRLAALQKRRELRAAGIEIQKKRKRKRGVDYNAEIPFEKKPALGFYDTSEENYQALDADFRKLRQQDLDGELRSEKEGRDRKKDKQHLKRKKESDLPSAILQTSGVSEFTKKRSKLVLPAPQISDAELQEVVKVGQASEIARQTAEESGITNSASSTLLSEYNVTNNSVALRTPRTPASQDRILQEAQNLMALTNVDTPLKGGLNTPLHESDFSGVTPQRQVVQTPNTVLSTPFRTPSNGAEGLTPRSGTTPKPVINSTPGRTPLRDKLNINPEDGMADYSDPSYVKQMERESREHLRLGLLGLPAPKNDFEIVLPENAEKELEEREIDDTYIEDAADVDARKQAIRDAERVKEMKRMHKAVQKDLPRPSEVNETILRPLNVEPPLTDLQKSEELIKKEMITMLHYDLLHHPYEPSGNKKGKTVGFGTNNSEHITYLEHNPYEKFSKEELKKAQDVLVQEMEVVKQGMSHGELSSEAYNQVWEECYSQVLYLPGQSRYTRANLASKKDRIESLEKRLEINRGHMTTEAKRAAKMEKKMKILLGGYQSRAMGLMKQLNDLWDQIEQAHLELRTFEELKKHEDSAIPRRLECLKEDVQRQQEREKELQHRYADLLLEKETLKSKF
UniProt Q01844: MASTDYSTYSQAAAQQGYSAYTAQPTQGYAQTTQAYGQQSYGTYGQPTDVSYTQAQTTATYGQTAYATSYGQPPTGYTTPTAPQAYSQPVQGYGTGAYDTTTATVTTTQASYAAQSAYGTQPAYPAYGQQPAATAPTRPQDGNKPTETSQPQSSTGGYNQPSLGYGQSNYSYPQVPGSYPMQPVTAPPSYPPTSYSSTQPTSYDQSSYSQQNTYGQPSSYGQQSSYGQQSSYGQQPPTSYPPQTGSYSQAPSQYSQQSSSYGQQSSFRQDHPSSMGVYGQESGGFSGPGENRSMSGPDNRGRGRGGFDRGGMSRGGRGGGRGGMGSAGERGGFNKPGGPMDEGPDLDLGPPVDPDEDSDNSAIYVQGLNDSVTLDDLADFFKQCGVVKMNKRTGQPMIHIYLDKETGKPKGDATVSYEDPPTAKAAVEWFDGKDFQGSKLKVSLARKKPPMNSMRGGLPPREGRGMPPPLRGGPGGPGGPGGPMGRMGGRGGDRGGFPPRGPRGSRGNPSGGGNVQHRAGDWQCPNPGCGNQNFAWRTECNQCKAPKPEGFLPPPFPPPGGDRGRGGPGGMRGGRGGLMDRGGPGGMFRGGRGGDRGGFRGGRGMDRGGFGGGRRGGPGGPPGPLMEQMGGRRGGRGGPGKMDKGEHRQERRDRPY
Heterogeneous nuclear ribonucleoprotein A2/B1 isoform A2 (P22626-2, form named): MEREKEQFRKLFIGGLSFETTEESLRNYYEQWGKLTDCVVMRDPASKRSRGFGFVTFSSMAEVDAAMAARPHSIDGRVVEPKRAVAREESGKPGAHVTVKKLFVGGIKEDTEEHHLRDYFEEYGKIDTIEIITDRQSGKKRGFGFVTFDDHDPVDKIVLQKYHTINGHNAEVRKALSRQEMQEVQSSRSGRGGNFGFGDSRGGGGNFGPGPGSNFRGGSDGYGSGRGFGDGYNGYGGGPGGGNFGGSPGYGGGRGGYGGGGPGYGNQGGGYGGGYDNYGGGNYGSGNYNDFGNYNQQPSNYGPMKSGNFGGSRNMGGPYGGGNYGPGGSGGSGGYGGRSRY
UniProt P52732: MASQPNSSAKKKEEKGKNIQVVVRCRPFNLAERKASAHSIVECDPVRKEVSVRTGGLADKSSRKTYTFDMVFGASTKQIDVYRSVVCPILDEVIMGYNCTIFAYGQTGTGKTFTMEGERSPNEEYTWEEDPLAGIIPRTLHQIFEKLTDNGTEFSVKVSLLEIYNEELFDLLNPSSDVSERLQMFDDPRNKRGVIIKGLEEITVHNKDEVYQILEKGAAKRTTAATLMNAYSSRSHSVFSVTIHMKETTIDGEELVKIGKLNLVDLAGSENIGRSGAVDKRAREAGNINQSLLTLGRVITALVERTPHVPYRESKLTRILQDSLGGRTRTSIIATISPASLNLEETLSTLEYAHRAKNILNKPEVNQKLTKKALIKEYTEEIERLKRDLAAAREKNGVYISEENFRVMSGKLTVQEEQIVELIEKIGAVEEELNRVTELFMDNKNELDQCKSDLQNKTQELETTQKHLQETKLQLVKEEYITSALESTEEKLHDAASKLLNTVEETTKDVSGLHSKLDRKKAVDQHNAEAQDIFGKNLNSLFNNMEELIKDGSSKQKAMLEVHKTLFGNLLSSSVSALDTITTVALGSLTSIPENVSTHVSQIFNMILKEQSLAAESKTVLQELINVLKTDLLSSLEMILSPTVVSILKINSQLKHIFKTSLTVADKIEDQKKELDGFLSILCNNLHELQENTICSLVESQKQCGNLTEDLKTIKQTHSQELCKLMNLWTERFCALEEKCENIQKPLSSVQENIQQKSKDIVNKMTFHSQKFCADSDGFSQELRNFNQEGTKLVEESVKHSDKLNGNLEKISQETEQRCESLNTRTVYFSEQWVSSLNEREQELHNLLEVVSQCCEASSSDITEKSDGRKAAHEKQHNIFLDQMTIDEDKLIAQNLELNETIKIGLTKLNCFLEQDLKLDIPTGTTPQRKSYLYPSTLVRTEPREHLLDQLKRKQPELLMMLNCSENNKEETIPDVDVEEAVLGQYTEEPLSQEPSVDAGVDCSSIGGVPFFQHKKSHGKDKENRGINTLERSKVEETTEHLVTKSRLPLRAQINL
UniProt O14744: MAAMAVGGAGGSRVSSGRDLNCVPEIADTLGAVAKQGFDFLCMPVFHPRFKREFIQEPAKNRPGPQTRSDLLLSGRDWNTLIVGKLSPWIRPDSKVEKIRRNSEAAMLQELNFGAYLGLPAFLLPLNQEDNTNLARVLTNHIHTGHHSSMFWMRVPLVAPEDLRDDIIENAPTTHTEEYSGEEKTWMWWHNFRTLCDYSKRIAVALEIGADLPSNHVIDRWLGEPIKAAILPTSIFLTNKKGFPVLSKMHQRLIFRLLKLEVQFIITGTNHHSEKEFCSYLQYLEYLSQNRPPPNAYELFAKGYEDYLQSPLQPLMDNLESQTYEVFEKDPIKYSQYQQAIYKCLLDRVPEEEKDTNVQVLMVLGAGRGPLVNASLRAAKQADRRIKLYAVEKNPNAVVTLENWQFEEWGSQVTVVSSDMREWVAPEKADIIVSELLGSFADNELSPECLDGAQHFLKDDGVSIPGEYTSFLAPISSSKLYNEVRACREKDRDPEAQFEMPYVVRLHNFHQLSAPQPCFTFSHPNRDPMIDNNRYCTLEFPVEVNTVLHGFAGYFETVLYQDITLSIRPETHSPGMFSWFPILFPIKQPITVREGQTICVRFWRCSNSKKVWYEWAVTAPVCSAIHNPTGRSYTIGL
UniProt P27694: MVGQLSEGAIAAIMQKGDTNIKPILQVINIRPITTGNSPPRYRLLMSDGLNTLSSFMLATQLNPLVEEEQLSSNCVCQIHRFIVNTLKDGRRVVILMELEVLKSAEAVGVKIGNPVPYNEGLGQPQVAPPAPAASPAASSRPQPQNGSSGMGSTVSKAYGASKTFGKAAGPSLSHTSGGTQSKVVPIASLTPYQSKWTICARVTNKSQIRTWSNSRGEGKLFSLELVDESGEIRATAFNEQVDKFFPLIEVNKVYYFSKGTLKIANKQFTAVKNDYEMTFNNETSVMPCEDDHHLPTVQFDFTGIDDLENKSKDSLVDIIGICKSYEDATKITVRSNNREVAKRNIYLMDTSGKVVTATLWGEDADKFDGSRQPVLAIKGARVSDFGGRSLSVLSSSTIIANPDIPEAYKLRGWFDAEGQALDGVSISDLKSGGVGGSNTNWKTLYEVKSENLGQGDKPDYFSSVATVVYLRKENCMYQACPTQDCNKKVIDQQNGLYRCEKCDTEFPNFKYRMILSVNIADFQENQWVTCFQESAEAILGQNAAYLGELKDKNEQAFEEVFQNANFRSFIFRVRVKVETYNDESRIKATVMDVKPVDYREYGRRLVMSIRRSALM

Sequences and labels used below:
B1: Protein phosphatase 1B isoform 1 (protein, UniProt O75688 1-479)
chain: MGAFLDKPKTEKHNAHGAGNGLRYGLSSMQGWRVEMEDAHTAVVGIPHGLEDWSFFAVYDGHAGSRVANYCSTHLLEHITTNEDFRAAGKSGSALELSVENVKNGIRTGFLKIDEYMRNFSDLRNGMDRSGSTAVGVMISPKHIYFINCGDSRAVLYRNGQVCFSTQDHKPCNPREKERIQNAGGSVMIQRVNGSLAVSRALGDYDYKCVDGKGPTEQLVSPEPEVYEILRAEEDEFIILACDGIWDVMSNEELCEYVKSRLEVSDDLENVCNWVVDTCLHKGSRDNMSIVLVCFSNAPKVSDEAVKKDSELDKHLESRVEEIMEKSGEEGMPDLAHVMRILSAENIPNLPPGGGLAGKRNVIEAVYSRLNPHRESDGASDEAEESGSQGKLVEALRQMRINHRGNYRQLLEEMLTSYRLAKVEGEESPAEPAATATSSNSDAGNPVTMQESHTESESGLAELDSSNEDAGTKMSGEKI
B2: Mitogen-activated protein kinase kinase kinase 7 isoform A (protein, UniProt O43318-2 1-579)
chain: MSTASAASSSSSSSAGEMIEAPSQVLNFEEIDYKEIEVEEVVGRGAFGVVCKAKWRAKDVAIKQIESESERKAFIVELRQLSRVNHPNIVKLYGACLNPVCLVMEYAEGGSLYNVLHGAEPLPYYTAAHAMSWCLQCSQGVAYLHSMQPKALIHRDLKPPNLLLVAGGTVLKICDFGTACDIQTHMTNNKGSAAWMAPEVFEGSNYSEKCDVFSWGIILWEVITRRKPFDEIGGPAFRIMWAVHNGTRPPLIKNLPKPIESLMTRCWSKDPSQRPSMEEIVKIMTHLMRYFPGADEPLQYPCQYSDEGQSNSATSTGSFMDIASTNTSNKSDTNMEQVPATNDTIKRLESKLLKNQAKQQSESGRLSLGASRGSSVESLPPTSEGKRMSADMSEIEARIAATTGNGQPRRRSIQDLTVTGTEPGQVSSRSSSPSVRMITTSGPTSEKPTRSHPWTPDDSTDTNGSDNSIPMAYLTLDHQLQPLAPCPNSKESMAVFEQHCKMAQEYMKVQTEIALLLQRKQELVAELDQDEKDQQNTSRLVQEHKKLLDENKSLSTYYQQCKKQLEVIRSQQQKRQGTS

No constants are given. Whether binding was seen depends on the method and setting. In cells and extracts the contact can be indirect. These calls come from enrichment with a bait or labelling near it, and not all partners need be listed.

The assay has as its target Flag-tagged myosin phosphatase target subunit 1 (FT-MYPT1) (UniProt O14974). The assay is described as follows: affinity purification with mass spectrometry; FT-MYPT1 bound to anti-Flag M2 affinity gel, incubated with precleared HepG2 nuclear extract for 2 hr at 4 °C, washed with TBS, eluted with 300 μg/ml Flag-peptide, SDS-PAGE, silver stain, in-gel trypsin digestion, LC-MS/MS; Flag-peptide as control; only the target purified.
On to “CDC5-like protein (from UniProt Q99459 1-802)”, for which the binding result was “binds”.

As to “Ewing sarcoma breakpoint region 1 isoform 2 (from UniProt Q01844 1-656)”, the binding entry is “binds”.

Consider “Heterogeneous nuclear ribonucleoprotein A2/B1 isoform A2 (from UniProt P22626-2 1-341)”, for which the binding entry is recorded as “binds”. The result for “Kinesin family member 11 (from UniProt P52732 1-1056)” reads “binds”; that for “Protein arginine methyltransferase 5 (PRMT5), endogenous in HepG2 (from UniProt O14744 1-637)”, “binds”; that for “Replication protein A1 (from UniProt P27694 1-616)”, “binds”. The result for B1 reads “binds”; that for B2, “binds”.
